Measurements: the supplement of paper PMC12823440, “Inhibitors supercharge kinase turnover through native proteolytic circuits” (Nature, 2025)
Where a name gives a salt, the structure may show the parent alone. The list shows a part of the results. The calls rarely recur for the same compound in another form.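 In K562 cells expressing nanoluciferase-fused kinases, luminescence was recorded at 4 h intervals between 2 and 18 h, normalized as percent of control with DMSO at 100% and a positive control at 0%. A significant (2 sigma) signal drop marks a time point as decreased. The authors' rule for a hit is not shown and takes in more than the number of time points.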

Amino acid sequences for entries named in this document (tags omitted). A change or cut given only in a name is not applied to a line headed by its entry.
UniProt Q05397, whole entry, looked up: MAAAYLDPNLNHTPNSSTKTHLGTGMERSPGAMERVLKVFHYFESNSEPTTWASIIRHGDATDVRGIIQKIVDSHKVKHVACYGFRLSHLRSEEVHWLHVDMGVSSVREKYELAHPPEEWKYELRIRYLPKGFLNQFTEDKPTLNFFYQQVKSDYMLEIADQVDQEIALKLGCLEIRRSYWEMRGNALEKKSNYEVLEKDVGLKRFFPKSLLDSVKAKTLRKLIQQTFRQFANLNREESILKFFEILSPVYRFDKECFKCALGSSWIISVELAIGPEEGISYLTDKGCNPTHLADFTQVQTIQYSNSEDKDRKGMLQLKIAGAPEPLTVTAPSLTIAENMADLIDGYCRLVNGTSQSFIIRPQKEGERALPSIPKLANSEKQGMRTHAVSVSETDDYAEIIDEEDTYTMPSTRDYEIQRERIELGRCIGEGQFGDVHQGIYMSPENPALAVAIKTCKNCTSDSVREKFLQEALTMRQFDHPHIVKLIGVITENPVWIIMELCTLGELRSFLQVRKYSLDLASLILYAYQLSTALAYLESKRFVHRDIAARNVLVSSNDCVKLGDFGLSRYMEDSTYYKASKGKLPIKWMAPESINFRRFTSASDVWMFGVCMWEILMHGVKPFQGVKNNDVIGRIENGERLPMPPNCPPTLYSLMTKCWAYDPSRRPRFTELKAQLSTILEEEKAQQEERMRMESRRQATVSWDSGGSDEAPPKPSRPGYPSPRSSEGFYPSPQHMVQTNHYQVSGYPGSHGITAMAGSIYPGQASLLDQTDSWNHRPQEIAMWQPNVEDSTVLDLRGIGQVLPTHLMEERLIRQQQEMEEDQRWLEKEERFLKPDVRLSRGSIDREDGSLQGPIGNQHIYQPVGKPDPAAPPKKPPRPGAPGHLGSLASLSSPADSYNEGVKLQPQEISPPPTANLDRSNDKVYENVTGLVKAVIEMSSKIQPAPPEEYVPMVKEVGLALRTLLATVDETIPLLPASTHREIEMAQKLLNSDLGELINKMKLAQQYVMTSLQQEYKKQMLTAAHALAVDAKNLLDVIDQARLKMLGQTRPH
UniProt P07949, whole entry, looked up: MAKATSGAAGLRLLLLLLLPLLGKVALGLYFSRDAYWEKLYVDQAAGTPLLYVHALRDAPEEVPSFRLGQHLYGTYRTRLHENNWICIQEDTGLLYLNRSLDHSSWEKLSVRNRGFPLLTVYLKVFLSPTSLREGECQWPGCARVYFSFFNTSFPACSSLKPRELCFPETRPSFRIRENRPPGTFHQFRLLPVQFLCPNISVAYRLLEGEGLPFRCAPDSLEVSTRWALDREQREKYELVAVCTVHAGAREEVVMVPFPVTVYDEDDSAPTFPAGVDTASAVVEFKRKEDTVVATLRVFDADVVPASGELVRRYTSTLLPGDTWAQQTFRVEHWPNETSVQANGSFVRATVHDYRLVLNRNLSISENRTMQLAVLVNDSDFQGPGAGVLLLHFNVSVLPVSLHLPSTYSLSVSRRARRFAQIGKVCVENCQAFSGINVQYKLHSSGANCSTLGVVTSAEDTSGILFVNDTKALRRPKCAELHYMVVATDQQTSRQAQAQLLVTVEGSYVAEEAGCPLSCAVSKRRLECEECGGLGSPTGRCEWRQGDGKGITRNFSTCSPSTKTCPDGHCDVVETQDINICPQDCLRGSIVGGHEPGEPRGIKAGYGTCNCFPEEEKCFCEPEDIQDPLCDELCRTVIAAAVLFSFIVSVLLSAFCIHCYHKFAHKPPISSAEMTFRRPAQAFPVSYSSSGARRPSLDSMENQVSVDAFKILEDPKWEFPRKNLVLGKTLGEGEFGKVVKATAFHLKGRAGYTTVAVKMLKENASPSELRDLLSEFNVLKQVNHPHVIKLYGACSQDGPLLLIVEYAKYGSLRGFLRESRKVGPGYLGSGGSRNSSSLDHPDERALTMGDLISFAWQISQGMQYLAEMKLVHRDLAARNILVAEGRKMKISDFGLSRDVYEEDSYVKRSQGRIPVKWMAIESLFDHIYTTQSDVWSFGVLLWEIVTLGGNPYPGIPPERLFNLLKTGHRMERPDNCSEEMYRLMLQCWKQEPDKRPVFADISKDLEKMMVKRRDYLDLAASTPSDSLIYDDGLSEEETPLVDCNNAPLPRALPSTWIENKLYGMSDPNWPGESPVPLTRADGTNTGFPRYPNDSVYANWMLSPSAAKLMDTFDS
UniProt P07949, whole entry M918T, looked up: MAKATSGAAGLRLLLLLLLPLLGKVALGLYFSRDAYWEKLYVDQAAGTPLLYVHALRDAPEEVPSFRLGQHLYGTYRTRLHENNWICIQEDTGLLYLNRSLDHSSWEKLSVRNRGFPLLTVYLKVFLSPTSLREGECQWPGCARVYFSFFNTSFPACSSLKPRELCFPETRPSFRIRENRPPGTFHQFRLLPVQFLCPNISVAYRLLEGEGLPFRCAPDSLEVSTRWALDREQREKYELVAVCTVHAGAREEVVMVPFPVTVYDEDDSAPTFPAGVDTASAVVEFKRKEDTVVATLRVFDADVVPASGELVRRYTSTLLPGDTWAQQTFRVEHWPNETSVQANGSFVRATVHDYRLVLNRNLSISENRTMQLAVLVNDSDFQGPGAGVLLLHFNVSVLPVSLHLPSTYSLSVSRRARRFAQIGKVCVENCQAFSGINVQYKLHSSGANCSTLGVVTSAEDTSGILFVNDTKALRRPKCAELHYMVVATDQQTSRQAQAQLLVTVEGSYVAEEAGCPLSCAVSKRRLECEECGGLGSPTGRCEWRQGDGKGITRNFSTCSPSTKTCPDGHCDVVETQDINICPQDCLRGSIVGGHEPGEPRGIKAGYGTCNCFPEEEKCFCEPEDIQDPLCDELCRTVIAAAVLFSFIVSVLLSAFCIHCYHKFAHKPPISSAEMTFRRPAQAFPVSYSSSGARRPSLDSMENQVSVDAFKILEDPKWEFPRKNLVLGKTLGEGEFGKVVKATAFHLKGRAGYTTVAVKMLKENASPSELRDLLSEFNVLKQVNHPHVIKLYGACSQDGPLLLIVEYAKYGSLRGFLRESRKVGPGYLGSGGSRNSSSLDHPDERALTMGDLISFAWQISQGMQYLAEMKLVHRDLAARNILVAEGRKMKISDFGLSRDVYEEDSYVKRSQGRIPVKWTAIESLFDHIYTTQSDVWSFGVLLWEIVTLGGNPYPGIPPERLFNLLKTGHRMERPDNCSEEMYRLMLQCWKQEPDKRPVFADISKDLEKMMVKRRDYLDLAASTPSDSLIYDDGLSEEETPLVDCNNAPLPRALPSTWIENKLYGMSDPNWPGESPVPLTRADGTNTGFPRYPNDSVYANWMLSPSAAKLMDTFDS
UniProt Q9BRS2: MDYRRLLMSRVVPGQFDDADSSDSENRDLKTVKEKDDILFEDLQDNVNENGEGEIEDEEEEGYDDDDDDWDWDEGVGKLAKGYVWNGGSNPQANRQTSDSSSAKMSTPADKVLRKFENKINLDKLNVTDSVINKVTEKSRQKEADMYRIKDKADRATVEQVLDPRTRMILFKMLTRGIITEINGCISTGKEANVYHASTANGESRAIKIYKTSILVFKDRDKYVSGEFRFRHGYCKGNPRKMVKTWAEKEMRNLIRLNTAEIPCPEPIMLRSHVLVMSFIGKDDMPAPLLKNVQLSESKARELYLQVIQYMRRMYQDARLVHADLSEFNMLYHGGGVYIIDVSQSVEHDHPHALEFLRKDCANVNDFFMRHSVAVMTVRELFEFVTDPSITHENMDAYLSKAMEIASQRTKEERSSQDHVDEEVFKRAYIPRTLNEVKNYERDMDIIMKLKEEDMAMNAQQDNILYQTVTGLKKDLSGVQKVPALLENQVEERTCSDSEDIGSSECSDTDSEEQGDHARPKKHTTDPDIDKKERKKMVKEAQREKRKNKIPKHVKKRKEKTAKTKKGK
UniProt Q15418, whole entry: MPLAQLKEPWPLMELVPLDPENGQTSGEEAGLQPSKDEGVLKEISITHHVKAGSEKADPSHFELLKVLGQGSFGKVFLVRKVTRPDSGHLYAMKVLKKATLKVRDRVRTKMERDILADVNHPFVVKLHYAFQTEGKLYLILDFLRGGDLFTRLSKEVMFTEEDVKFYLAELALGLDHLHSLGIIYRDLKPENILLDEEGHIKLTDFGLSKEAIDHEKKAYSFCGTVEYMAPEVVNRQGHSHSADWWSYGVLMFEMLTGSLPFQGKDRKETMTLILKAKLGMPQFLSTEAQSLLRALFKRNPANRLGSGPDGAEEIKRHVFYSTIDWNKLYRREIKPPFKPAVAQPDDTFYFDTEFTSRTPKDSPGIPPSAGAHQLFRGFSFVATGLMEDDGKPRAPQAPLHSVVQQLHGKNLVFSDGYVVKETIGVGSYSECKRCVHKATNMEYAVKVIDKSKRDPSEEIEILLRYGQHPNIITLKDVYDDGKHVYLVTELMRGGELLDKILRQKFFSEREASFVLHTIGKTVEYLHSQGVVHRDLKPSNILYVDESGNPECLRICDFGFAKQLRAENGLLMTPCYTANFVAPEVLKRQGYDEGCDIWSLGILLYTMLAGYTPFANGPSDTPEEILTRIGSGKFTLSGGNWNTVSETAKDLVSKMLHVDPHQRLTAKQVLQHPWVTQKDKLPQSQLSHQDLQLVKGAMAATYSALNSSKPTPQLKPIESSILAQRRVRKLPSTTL
UniProt Q9NYA1, whole entry: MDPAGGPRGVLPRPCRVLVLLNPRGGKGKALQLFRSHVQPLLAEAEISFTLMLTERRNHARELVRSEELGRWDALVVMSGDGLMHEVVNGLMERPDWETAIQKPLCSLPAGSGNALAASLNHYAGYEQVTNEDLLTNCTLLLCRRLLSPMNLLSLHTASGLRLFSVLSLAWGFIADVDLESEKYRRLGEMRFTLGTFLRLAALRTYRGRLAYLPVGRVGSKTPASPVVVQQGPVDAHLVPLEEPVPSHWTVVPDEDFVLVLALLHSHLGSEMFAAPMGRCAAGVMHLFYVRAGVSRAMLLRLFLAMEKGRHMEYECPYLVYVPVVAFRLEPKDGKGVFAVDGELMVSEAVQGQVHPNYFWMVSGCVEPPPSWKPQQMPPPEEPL
UniProt Q15208: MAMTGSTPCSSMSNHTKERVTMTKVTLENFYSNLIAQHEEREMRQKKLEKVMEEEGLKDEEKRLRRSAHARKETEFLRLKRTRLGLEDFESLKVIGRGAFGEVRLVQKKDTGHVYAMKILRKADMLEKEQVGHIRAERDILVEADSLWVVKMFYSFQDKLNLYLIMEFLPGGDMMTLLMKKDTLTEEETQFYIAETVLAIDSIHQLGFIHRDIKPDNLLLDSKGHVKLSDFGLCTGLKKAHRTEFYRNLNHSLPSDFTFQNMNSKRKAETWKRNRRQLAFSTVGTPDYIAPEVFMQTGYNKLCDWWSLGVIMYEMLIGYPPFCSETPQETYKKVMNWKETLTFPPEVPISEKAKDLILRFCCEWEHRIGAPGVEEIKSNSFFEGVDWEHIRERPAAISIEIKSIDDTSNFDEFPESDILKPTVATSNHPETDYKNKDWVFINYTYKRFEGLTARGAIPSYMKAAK
UniProt P42680: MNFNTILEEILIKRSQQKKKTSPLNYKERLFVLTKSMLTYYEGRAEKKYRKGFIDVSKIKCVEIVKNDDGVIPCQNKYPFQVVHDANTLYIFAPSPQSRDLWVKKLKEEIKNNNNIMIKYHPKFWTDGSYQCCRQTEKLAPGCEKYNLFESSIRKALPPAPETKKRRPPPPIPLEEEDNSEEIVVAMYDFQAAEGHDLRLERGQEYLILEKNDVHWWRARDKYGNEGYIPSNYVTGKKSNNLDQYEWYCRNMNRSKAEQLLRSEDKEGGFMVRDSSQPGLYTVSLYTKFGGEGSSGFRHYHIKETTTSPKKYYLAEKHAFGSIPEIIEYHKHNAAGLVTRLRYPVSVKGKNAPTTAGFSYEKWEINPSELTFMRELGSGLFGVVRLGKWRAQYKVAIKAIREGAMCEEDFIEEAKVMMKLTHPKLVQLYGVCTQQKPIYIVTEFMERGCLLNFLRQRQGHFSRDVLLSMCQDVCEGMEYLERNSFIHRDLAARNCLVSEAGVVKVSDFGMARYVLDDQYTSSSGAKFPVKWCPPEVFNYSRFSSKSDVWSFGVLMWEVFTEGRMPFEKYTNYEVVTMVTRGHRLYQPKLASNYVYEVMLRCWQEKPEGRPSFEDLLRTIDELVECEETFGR
UniProt Q6PHR2: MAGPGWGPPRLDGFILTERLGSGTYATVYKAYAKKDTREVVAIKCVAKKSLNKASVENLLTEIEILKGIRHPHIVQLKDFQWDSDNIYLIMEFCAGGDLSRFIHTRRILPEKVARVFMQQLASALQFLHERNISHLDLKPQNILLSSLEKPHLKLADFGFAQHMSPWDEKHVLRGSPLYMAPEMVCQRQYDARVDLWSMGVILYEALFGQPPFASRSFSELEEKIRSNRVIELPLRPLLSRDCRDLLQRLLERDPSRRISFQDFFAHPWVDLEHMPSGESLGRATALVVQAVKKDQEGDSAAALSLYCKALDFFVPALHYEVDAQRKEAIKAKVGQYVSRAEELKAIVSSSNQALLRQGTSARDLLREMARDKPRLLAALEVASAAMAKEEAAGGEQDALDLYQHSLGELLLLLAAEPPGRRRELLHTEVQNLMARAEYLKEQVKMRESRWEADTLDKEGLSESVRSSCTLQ

Key:
Test in all cases: number of time points (of 5) at which kinase-Nluc abundance scored as decreased, DMSO-normalised (count); higher = more persistent destabilization
Conditions in all cases: K562; 2-18 h
PRKCA = PRKCA (UniProt P17252)
PTK2 = PTK2 (UniProt Q05397)
PTK2B = PTK2B (UniProt Q14289)
RAF1 = RAF1 (UniProt P04049)
[1] = target: RAF1_S257L (clone: RAF1_mut) (UniProt P04049)
RET = RET (UniProt P07949)
[2] = target: RET_M918T (clone: RET_mut) (UniProt P07949)
RIOK1 = RIOK1 (UniProt Q9BRS2)
RIPK1 = RIPK1 (UniProt Q13546)
RIPK2 = RIPK2 (UniProt O43353)
ROR2 = ROR2 (UniProt Q01974)
RPS6KA1 = RPS6KA1 (UniProt Q15418)
SPHK1 = SPHK1 (UniProt Q9NYA1)
SRC = SRC (UniProt P12931)
STK24 = STK24 (UniProt Q9Y6E0)
STK38 = STK38 (UniProt Q15208)
SYK = SYK (UniProt P43405)
TEC = TEC (UniProt P42680)
TYK2 = TYK2 (UniProt P29597)
ULK3 = ULK3 (UniProt Q6PHR2)

Compound | number of time points (PRKCA) | number of time points (PTK2) | number of time points (PTK2B) | number of time points (RAF1) | number of time points [1] | number of time points (RET) | number of time points [2] | number of time points (RIOK1) | number of time points (RIPK1) | number of time points (RIPK2) | number of time points (ROR2) | number of time points (RPS6KA1) | number of time points (SPHK1) | number of time points (SRC) | number of time points (STK24) | number of time points (STK38) | number of time points (SYK) | number of time points (TEC) | number of time points (TYK2) | number of time points (ULK3)
O=c1[nH]c(C2CCCN2)nc2c1oc1ccc(Cl)cc12 (stereo not given) [XL413 (hydrochloride)] (10 µM) | 0 | 0 | 0 | 0 | 0 | 0 | 0 | 0 | 0 | 0 | 0 | 0 | 0 | 0 | 0 | 0 | 0 | 0 | 0 | 0
c1cc(NC2CCNCC2)nc(-c2cnc3ccccn23)c1 [IRAK inhibitor 1] (10 µM) | 0 | 0 | 0 | 0 | 0 | 0 | 0 | 0 | 0 | 0 | 0 | 0 | 0 | 0 | 0 | 0 | 0 | 0 | 0 | 0
CC(C)(C)n1nc(Cc2ccccc2O)c2c(N)ncnc21 (10 µM) | 0 | 2 | 0 | 1 | 0 | 0 | 0 | 0 | 0 | 0 | 0 | 0 | 0 | 0 | 0 | 0 | 0 | 0 | 3 | 0
O=C1O[C@H]([C@@H](O)CO)C(O)=C1OP(=O)(O)O [2-Phospho-L-ascorbic acid (trisodium)] (10 µM) | 0 | 0 | 0 | 0 | 0 | 0 | 0 | 0 | 0 | 0 | 0 | 0 | 0 | 0 | 0 | 0 | 0 | 0 | 0 | 0
COCCNc1cc(NC(=O)N2CCCc3cc(CN4CCN(C)CC4=O)c(C=O)nc32)ncc1C#N [Roblitinib] (10 µM) | 0 | 0 | 0 | 0 | 0 | 0 | 0 | 0 | 0 | 0 | 0 | 0 | 0 | 0 | 0 | 0 | 0 | 0 | 0 | 0
C=CC(=O)Nc1cccc(-c2cccc3cnc(Nc4ccc(N5CCN(CCO)CC5)c(F)c4F)nc23)c1 [Olafertinib] (2.5 µM) | 0 | 0 | 0 | 0 | 0 | 0 | 0 | 0 | 0 | 0 | 0 | 0 | 0 | 0 | 0 | 0 | 0 | 0 | 0 | 0
Nc1ncnc2c1c(COc1cccc(Cl)c1)nn2C1CCOCC1 (10 µM) | 0 | 0 | 0 | 0 | 0 | 0 | 0 | 0 | 0 | 0 | 0 | 0 | 0 | 0 | 0 | 0 | 0 | 0 | 0 | 0
Cc1ccc(Oc2nc3cc(-c4ccc(-c5ccccc5)cc4)c(Cl)cc3[nH]2)cc1C(=O)O (10 µM) | 0 | 0 | 0 | 0 | 0 | 0 | 0 | 0 | 0 | 0 | 0 | 0 | 0 | 0 | 0 | 0 | 0 | 0 | 0 | 0
CN(C)S(=O)(=O)c1ccc2c(c1)/C(=C/c1cc3c([nH]1)CCCC3)C(=O)N2 (2.5 µM) | 3 | 2 | 0 | 0 | 0 | 0 | 0 | 0 | 0 | 0 | 1 | 1 | 2 | 0 | 0 | 0 | 0 | 0 | 0 | 0
CNc1nc(Nc2ccc(C(=O)N3CCOCC3)cc2OC)ncc1Cl (2.5 µM) | 0 | 0 | 0 | 0 | 0 | 0 | 0 | 0 | 0 | 0 | 0 | 0 | 0 | 0 | 0 | 0 | 0 | 0 | 0 | 0
Oc1ccc(/C=C/c2cc(O)cc(O)c2)cc1 [Resveratrol] (10 µM) | 0 | 0 | 0 | 0 | 0 | 0 | 0 | 0 | 0 | 0 | 0 | 0 | 0 | 0 | 0 | 0 | 0 | 0 | 0 | 0
COc1ccc2cc3[n+](cc2c1OC)CCc1cc(O)c(O)cc1-3 [Demethyleneberberine] (10 µM) | 0 | 0 | 0 | 0 | 0 | 0 | 0 | 0 | 0 | 0 | 0 | 0 | 0 | 0 | 0 | 0 | 0 | 0 | 0 | 0

Single records, as listed above. Values in the order: number of time points (PRKCA) | number of time points (PTK2) | number of time points (PTK2B) | number of time points (RAF1) | number of time points [1] | number of time points (RET) | number of time points [2] | number of time points (RIOK1) | number of time points (RIPK1) | number of time points (RIPK2) | number of time points (ROR2) | number of time points (RPS6KA1) | number of time points (SPHK1) | number of time points (SRC) | number of time points (STK24) | number of time points (STK38) | number of time points (SYK) | number of time points (TEC) | number of time points (TYK2) | number of time points (ULK3)
`C=CC(=O)Nc1cccc(-c2cccc3cnc(Nc4ccc(N5CCN(CCO)CC5)c(F)c4F)nc23)c1` [Olafertinib] (2.5 µM) is listed with 0 | 0 | 0 | 0 | 0 | 0 | 0 | 0 | 0 | 0 | 0 | 0 | 0 | 0 | 0 | 0 | 0 | 0 | 0 | 0
`CNc1nc(Nc2ccc(C(=O)N3CCOCC3)cc2OC)ncc1Cl` (2.5 µM) is listed with 0 | 0 | 0 | 0 | 0 | 0 | 0 | 0 | 0 | 0 | 0 | 0 | 0 | 0 | 0 | 0 | 0 | 0 | 0 | 0
